Data: publication PMC3487726
Results are given in words; binding and its absence hold for the method and conditions named. In cells and extracts the contact can be indirect. Some results given as binding are weak or reduced against the parent protein; the word gives no strength.

Sequences of proteins named here, by UniProt entry; tags and fusion partners are left off.
UniProt Q9WVE0: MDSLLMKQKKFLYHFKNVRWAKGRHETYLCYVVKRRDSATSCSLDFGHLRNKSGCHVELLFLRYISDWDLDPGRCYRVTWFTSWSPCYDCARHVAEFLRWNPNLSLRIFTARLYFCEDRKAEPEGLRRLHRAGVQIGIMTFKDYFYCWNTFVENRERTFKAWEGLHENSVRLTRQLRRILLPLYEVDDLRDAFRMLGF
UniProt Q9UN81: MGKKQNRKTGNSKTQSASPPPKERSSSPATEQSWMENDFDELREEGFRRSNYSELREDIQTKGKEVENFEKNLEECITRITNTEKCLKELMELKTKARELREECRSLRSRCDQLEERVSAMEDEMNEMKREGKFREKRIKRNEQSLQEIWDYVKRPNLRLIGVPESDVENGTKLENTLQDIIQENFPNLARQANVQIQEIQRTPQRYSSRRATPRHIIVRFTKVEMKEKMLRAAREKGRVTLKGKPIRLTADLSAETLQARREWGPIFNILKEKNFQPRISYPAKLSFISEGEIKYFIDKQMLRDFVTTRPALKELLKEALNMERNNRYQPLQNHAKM

Target: Flag-AID (mouse wild-type activation-induced cytidine deaminase with N-terminal Flag-tag) (mouse) (UniProt Q9WVE0)
Test: co-IP; anti-Flag immunoprecipitation (protein G agarose) from lysates of Phoenix cells transfected with Flag-AID or Flag-GFP; cells lysed in the presence of RNase inhibitors; Western blot with anti-ORF1 and anti-AID

- binding: binds
Substance: LINE-1 (L1) open reading frame 1 (ORF1) protein, endogenous human (from UniProt Q9UN81 1-338)
